Data as given in PubChem BioAssay AID1259308 (NCATS, 2017)

Screen: 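Genes whose loss raises luciferase production in HEK293 cells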 (primary screen)
Cell system: human HEK293 embryonic kidney cells stably expressing firefly luciferase (HEK-CMV-Luc2-Hygro)
Reagent: single siRNA against human genes, 0.8 pmol siRNA per well
Duration: 72 h
Read-out: 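Luciferase light (ONE-Glo) measured on one replicate plate set and viability (CellTiter-Glo) on the other, scaled to a negative control siRNA, with robust z-scores and luciferase per cell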
Reading the numbers: total luciferase, z-score and total luciferase, % of control: higher = more reporter protein produced; luciferase per cell, z-score: higher = more reporter output per viable cell
Active means: 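An siRNA counts as active if its total luciferase robust z-score exceeds 3; genes with two or more such siRNAs out of three were retested with fresh siRNAs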
Calls: active = raised luciferase; inactive = no rise
Here is an unselected part of about 59,000 reagents. About 1,510 of them (2.6%) were called active. 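Calls use total luciferase alone and ignore viability, so some active siRNAs may act by altering cell number.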 Further read-outs or replicates are left out here. No sequences are given here.

target gene	PubChem SID	total luciferase, z-score	total luciferase, % of control	luciferase per cell, z-score	Outcome
FFAR1	SID160723808	1.02	102	0.143	inactive
FFAR1	SID160723809	1.68	115	1.78	inactive
FFAR1	SID160731021	0.714	96.1	0.174	inactive
CFAP65	SID160732815	-1.45	53	-0.81	inactive
CFAP65	SID160762266	1.17	105	0.955	inactive
CFAP65	SID160762267	0.487	91.6	1.03	inactive
FDXR	SID160764704	-0.199	77.9	-0.861	inactive
FDXR	SID160764715	-0.225	77.4	-1.2	inactive
FDXR	SID160764726	4.99	181	5.25	active
OR8I2	SID160755821	-0.261	76.7	0.527	inactive
OR8I2	SID160755823	1	102	1.11	inactive
OR8I2	SID160755824	0.0131	82.1	-0.084	inactive
DCDC1	SID160732638	0.537	92.6	1.18	inactive
DCDC1	SID160760586	-0.00344	81.8	0.0746	inactive
DCDC1	SID160760587	0.424	90.3	0.503	inactive
DCDC1	SID160764512	-0.658	68.8	0.642	inactive
DCDC1	SID160764513	2.43	130	1.15	inactive
DCDC1	SID160764514	0.495	91.7	0.239	inactive
SEC31A	SID160732345	0.986	101	0.622	inactive
SEC31A	SID160732355	0.196	85.8	-0.0222	inactive
SEC31A	SID160732365	-0.858	64.8	-0.661	inactive
BRINP1	SID160752692	1.82	118	1.91	inactive
BRINP1	SID160752703	-0.706	67.9	-0.0559	inactive
BRINP1	SID160752712	0.221	86.3	0.991	inactive

Reagents listed above marked active:
target gene	PubChem SID	total luciferase, z-score	total luciferase, % of control	luciferase per cell, z-score	Outcome
FDXR	SID160764726	4.99	181	5.25	active
